For 38 compounds, AC50 and cell number change results are on record in PubChem BioAssay AID2685 (National Center for Advancing Translational Sciences (NCATS), 2010).

This is one part of the list. These are further read-outs of the screen, such as a control signal, another cell line or another target. No call is given for them. The list favours compounds with an active or inconclusive main result. The note in brackets gives the kind of curve behind each potency; many fits are weak.

This test in a line: qHTS Assay for Lipid Storage Modulators in Drosophila S3 Cells.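 For cell number change: cells counted by Cell Tracker Red CMTPX staining in the red channel.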 The conditions noted are these: BODIPY lipid droplet fluorescence, 18-24 h; for cell number change: measured here: cell count max response, cells fed with added oleic acid. The method in brief:
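Drosophila S3 cells got compounds at several concentrations plus oleic acid (400 uM solution). Laser-scanning cytometry with 488 nm excitation read lipid droplets at 500-530 nm and cells at 575-640 nm. Percent activity was relative to 20 uM Triacsin C.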
On the technique in general: In qHTS, concentration-response curves come from the screen itself.

The mark [1] stands for this setting: measured here: lipid fluorescence (Fed channel) AC50, cells fed with added oleic acid.
[2] abbreviates: measured here: cell number channel AC50, cells fed with added oleic acid.

The AC50 is the concentration giving half of the maximal activity seen. Read a low AC50 as greater potency. As to `Cc1cc(NC(=O)NC2CC(=O)N(c3ccc4c(c3)OCCO4)C2)no1` (stereo not given), the AC50 under setting [1] was 0.411 µM [falling, full curve, poor fit]. Turning to `N=c1c(C(=O)NCC2CCCO2)cc2c(=O)n3ccccc3nc2n1Cc1cccnc1` (stereo not given), the cell number change is 23.7%. Besides, under setting [1], the AC50 was 4.61 µM [rising, full curve]. On to `CCN(CC)CCCNC(=O)c1nn(-c2cccc(OC)c2)c(=O)c2ccccc12`, for which the cell number change worked out at 5.75%. For the same compound, under setting [1], the AC50 is 13 µM [rising, single point].

For `Cc1cc(F)ccc1N1CCC(N2CCN(C)C(CCO)C2)CC1` (stereo not given), the cell number change is -10.2%. In the case of `COc1ccc(Cl)cc1NC(=O)C/C(C)=N/NC(=O)c1ccc(O)cc1`, the cell number change is -16.7%. Also, under setting [1], the AC50 is 0.517 µM [falling, single point]. For `Cc1nn(C)cc1CN(C)C(=O)c1nn2c(c1Cl)NC(c1cccs1)CC2C(F)(F)F` (stereo not given), the cell number change stood at 23.5%. Also, the concentration at half-maximal activity (AC50) under setting [1] is 29.1 µM [rising, single point].

In the case of `c1csc(-c2nc3c4ccccc4c4ccccc4c3[nH]2)c1`, the cell number change was -26%. The AC50 under setting [1] was 16.4 µM [falling, partial curve]. As to `CC(=O)N1CCN(C(=O)c2oc3ccccc3c2C)CC1`, the cell number change is -9.09%. Besides, under setting [1], the AC50 was 29.1 µM [rising, single point]. With `CN(Cc1ccccc1)C(=O)COC(=O)c1ccc2c(c1)OCO2`, the cell number change was -40.6%. The AC50 under setting [1] was 29.1 µM [falling, single point]. Take `O=C(Cc1c(F)cccc1Cl)NC1=NCCS1`: the cell number change is -8.94%.

As to `CC(OC(=O)CC1CC2CCC1C2)C(=O)Nc1ccc(C(N)=O)cc1` (stereo not given), under setting [1], the AC50 was 4.11 µM [rising, single point]. Consider `Cc1nn(C)cc1S(=O)(=O)N1CCN(Cc2cccc(Cl)c2)CC1`, for which the cell number change was -1.08%. `COc1ccc(CC(=O)OCCc2cc3cc(OC)c(OC)cc3c(=O)o2)cc1`: the cell number change is -5.56%. Further, the AC50 under setting [2] was 0.0058 µM [falling, full curve, poor fit]. Besides, the AC50 under setting [1] is 0.00461 µM [falling, full curve, poor fit]. On to `O=c1cc(O)n(-c2ccccc2F)c(=S)[nH]1`, for which the cell number change amounted to 37.1%. Also, the AC50 under setting [2] is 16.4 µM [rising, partial curve, poor fit]. The AC50 under setting [1] was 16.4 µM [falling, partial curve]. Take `Cn1c(=O)c(=O)n(C)c2cc(S(=O)(=O)N3CCCC3C(=O)NCc3cccs3)ccc21` (stereo not given): the cell number change was -5.23%. Further, under setting [2], the AC50 was 0.651 µM [falling, full curve, poor fit]. Also, the AC50 under setting [1] was 3.26 µM [falling, partial curve]. Turning to `O=C(Nc1nccs1)c1cccc(N2C(=O)C3C4C=CC(C4)C3C2=O)c1` (stereo not given), the cell number change was determined as 4%. For the same compound, the AC50 under setting [1] was 0.116 µM [rising, full curve, poor fit].

`C=C(C)Cn1c(=O)c2c(nc3n2CCCN3CCc2ccccc2)n(C)c1=O`: the cell number change was -8.87%. Further, the AC50 under setting [1] was 23.1 µM [falling, single point]. For `COc1cc2c(cc1OC)CN(CC(=O)Nc1ccc3c(c1)OC(F)(F)O3)CC2`, the cell number change came to 47.8%. Besides, the AC50 under setting [2] was 29.1 µM [rising, single point]. Consider `COc1ccccc1N1CCN(C(=O)C(CC(C)C)NC(=O)C2CCCCC2)CC1` (stereo not given), for which the cell number change came out at 8.26%. Also, the AC50 under setting [1] is 0.58 µM [falling, single point]. `Cc1ccccc1NS(=O)(=O)c1ccc(C(=O)NCC(C)(C)N2CCOCC2)cc1`: the cell number change was -21.6%. Besides, under setting [1], the AC50 was 6.51 µM [rising, partial curve, poor fit].

On to `Cc1ccc(N(CCC#N)C(=O)CSc2ccc3c(c2)OCCO3)cc1`, for which the cell number change came to 52.6%. Also, the AC50 under setting [2] was 29.1 µM [rising, single point].

Regarding `Cc1cc(C)c(S(=O)(=O)N2CCCCC2)c(C)c1N(C)S(=O)(=O)c1ccccc1`, the cell number change is -13.9%. Besides, under setting [1], the AC50 is 8.2 µM [falling, single point]. `Cc1oc(-c2ccccc2)nc1C(=O)OCC(=O)NCc1ccc(Cl)cc1`: the cell number change is -41.8%. The AC50 under setting [2] is 20.6 µM [falling, partial curve]. Also, under setting [1], the AC50 is 1.03 µM [rising, full curve, poor fit]. For `O=C1c2ccccc2C(=O)N1CCc1nn[nH]n1`, the cell number change is -28.6%. For the same compound, the AC50 under setting [1] was 0.411 µM [falling, full curve]. `COCc1c(C(=O)Nc2nc(C)cs2)oc2ccccc12`: the AC50 under setting [1] was 29.1 µM [rising, partial curve].

Take `COc1ccc(N(C(=O)C(C)C)S(=O)(=O)c2ccc3c(c2)n(C)c(=O)n3C)cc1`: the cell number change worked out at 43%. Also, under setting [2], the AC50 was 0.58 µM [rising, full curve]. The AC50 under setting [1] is 1.16 µM [rising, partial curve, poor fit]. Consider `Cc1cc(C(=O)OCCO)c(C#N)c(N)n1`, for which the cell number change is -2.35%. The AC50 under setting [1] was 2.06 µM [falling, partial curve].

Regarding `COc1ccc(-c2cc(-c3ccccc3)nc(SC(C)C(=O)O)c2C#N)cc1` (stereo not given), the cell number change was -42%. In addition, under setting [2], the AC50 was 5.8 µM [falling, partial curve]. Turning to `COC(=O)c1ccccc1NC1=C/C(=N\S(=O)(=O)c2ccc(C(=O)O)cc2)c2ccccc2C1=O`, the cell number change is -16.2%. The AC50 under setting [1] was 6.51 µM [rising, single point]. On to `COc1ccccc1N(C(=O)c1ccco1)C(C(=O)NC1CCCC1)c1cccs1` (stereo not given), for which the cell number change turned out to be 7.69%. Consider `COCCNC(=O)C(c1ccc(C)o1)N(C(=O)c1snc(C(N)=O)c1N)c1ccc(C)cc1` (stereo not given), for which the cell number change was -38.9%. Further, the AC50 under setting [2] is 2.31 µM [falling, partial curve]. For the compound `CCc1ccccc1OCC(=O)Nc1ccc(N2CCCC2)cc1C`, the cell number change was determined as 85.5%. Also, under setting [2], the AC50 is 5.17 µM [rising, full curve]. Take `Cc1cccc2c(CC(=O)Nc3ccccc3)noc12`: the cell number change came to 12.5%. In addition, the AC50 under setting [1] was 6.51 µM [rising, single point]. As for `Cn1c(SCC(=O)NC(C)(C)C)nnc1-c1ccc(C(C)(C)C)cc1`, the cell number change was -44.5%. In addition, the half-maximal activity concentration (AC50) under setting [2] was 11.6 µM [falling, partial curve]. Besides, under setting [1], the AC50 is 18.4 µM [falling, partial curve]. On to `COc1ccc(Cc2nnc(SCC(=O)N(C)c3ccccc3)o2)cc1`, for which, under setting [1], the AC50 was 2.91 µM [rising, full curve, poor fit]. As for `N/C(=N\OC(=O)c1cc(Br)ccc1Cl)c1ccccn1`, the cell number change came out at 33.4%. Also, the AC50 under setting [2] is 29.1 µM [rising, single point].

With `CCC1=C/C(=C/N(C)c2ccccc2)C(=O)S1`, the cell number change was determined as 4.58%. Also, the AC50 under setting [1] was 0.103 µM [falling, full curve, poor fit]. Consider `CCOc1ccc(N2CC(C(=O)Nc3ccccc3N3CCCC3)CC2=O)cc1` (stereo not given), for which the cell number change came to 31%. The AC50 under setting [2] was 9.2 µM [rising, partial curve, poor fit]. Also, the AC50 under setting [1] is 9.2 µM [rising, partial curve].
